± gives the standard deviation of the averaged measurements. Most values lie at the level of the controls, where differences are scatter.
Experiments:
Assay in all cases: level (log10 ratio to DMSO vehicle control); higher = higher biomarker level / cell amount than vehicle control
[1] = compound: CCOC(=O)CC(=O)C(F)(F)C(F)(F)F [Ethyl pentafluoropropionyl acetate]; conditions: 2200 nM; in DMSO
Method: (§1)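 BioMAP Diversity Plus panel of 12 human primary cell co-culture systems (3C, 4H, LPS, SAg, BT, BF4T, BE3C, CASM3C, HDF3CGF, KF3CT, MyoF, Mphg). Compounds were added 1 h before stimulation and left for 24 h (MyoF 48 h; BT 72 h for soluble read-outs or 6 d for IgG). Biomarkers were read by ELISA, cytotoxicity by SRB, PBMC viability and proliferation by Alamar Blue. Each well value was divided by the mean of 8 DMSO control wells on the same plate and log10 transformed; duplicate blinded samples were tested at 4 concentrations.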

[2] = compound: O=C(O)C(F)(F)C(F)(F)C(F)(F)C(F)(F)C(F)(F)C(F)(F)C(F)(F)F [Ammonium perfluorooctanoate]; conditions: 2200 nM; in DMSO
Method: as §1

Perfluorooctanoic acid = compound: O=C(O)C(F)(F)C(F)(F)C(F)(F)C(F)(F)C(F)(F)C(F)(F)C(F)(F)F [Perfluorooctanoic acid]; conditions: 2200 nM; in DMSO
Method: as §1

[3] = compound: O=C(O)C(F)(F)OC(F)(F)C(F)(F)OC(F)(F)F [Perfluoro-3,6-dioxaheptanoic acid]; conditions: 2200 nM; in DMSO
Method: as §1

[4] = compound: O=C(O)CCC(F)(C(F)(F)F)C(F)(F)F [4,4-bis(Trifluoromethyl)-4-fluoropropanoic acid]; conditions: 2200 nM; in DMSO
Method: as §1

[5] = compound: C=CC(=O)OCC(F)(F)C(F)(F)C(F)(F)C(F)(F)C(F)(F)C(F)(F)C(F)(F)C(F)F [1H,1H,9H-Perfluorononyl acrylate]; conditions: 2200 nM; in DMSO
Method: as §1

Perfluorodecanoic acid = compound: O=C(O)C(F)(F)C(F)(F)C(F)(F)C(F)(F)C(F)(F)C(F)(F)C(F)(F)C(F)(F)C(F)(F)F [Perfluorodecanoic acid]; conditions: in DMSO
Method: as §1

[6] = compound: O=C(O)C(F)(F)OC(F)(F)C(F)(F)OC(F)(F)C(F)(F)OC(F)(F)C(F)(F)C(F)(F)C(F)(F)F [Perfluoro-3,6,9-trioxatridecanoic acid]; conditions: 2200 nM; in DMSO
Method: as §1

Perfluorooctanamidine = compound: N=C(N)C(F)(F)C(F)(F)C(F)(F)C(F)(F)C(F)(F)C(F)(F)C(F)(F)F [Perfluorooctanamidine]; conditions: in DMSO
Method: as §1

[7] = compound: FC(F)(F)C(F)(F)C(F)(F)C(F)(F)C(F)(F)C(F)(F)C(F)(F)C(F)(F)CCS [2-(Perfluorooctyl)ethanthiol]; conditions: in DMSO
Method: as §1

[8] = compound: O=C(CC(=O)C(F)(F)C(F)(F)C(F)(F)F)c1cccs1 [(Perfluorobutyryl)-2-thenoylmethane]; conditions: 2200 nM; in DMSO
Method: as §1

[9] = compound: OCC(F)(F)C(F)(F)C(F)(F)C(F)(F)C(F)(F)C(F)(F)C(F)(F)C(F)(F)CO [1H,1H,10H,10H-Perfluorodecane-1,10-diol]; conditions: 2200 nM; in DMSO
Method: as §1

[10] = compound: OCC(F)(F)OC(F)(F)C(F)(F)OC(F)(F)C(F)(F)OC(F)(F)CO [1H,1H,11H,11H-Perfluorotetraethylene glycol]; conditions: 2200 nM; in DMSO
Method: as §1

Perfluorononanoic acid = compound: O=C(O)C(F)(F)C(F)(F)C(F)(F)C(F)(F)C(F)(F)C(F)(F)C(F)(F)C(F)(F)F [Perfluorononanoic acid]; conditions: 2200 nM; in DMSO
Method: as §1

Test System	level (log10) [1]	level (log10) [2]	level (log10) (Perfluorooctanoic acid)	level (log10) [3]	level (log10) [4]	level (log10) [5]	level (log10) (Perfluorodecanoic acid; 2200 nM)	level (log10) (Perfluorodecanoic acid; 6700 nM)	level (log10) (Perfluorodecanoic acid; 20000 nM)	level (log10) [6]	level (log10) (Perfluorooctanamidine; 2200 nM)	level (log10) (Perfluorooctanamidine; 6700 nM)	level (log10) (Perfluorooctanamidine; 20000 nM)	level (log10) (Perfluorooctanamidine; 60000 nM)	level (log10) ([7]; 740 nM)	level (log10) ([7]; 2200 nM)	level (log10) [8]	level (log10) [9]	level (log10) [10]	level (log10) (Perfluorononanoic acid)
lMphg:CD40	0.009 ± 0.014	0.028 ± 0.052	-0.004 ± 0.0057	-0.0045 ± 0.0035	-0.004 ± 0.014	-0.0235 ± 0.0021	0.005 ± 0.0014	-0.0025 ± 0.039	-0.0385 ± 0.05	0.0085 ± 0.0035	-0.0125 ± 0.029	-0.016 ± 0.023	-0.0145 ± 0.005	-0.046	0.0265 ± 0.005	0.0155 ± 0.044	0.0215 ± 0.012	0.0135 ± 0.012	-0.014 ± 0.03	-0.002 ± 0.02
KF3CT:PAI-I	-0.012 ± 0.067	-0.0045 ± 0.0021	-0.004 ± 0.016	0.0165 ± 0.057	-0.009 ± 0.016	0.008 ± 0.058	-0.011 ± 0.013	-0.0365 ± 0.023	-0.144 ± 0.042	-0.023 ± 0.016	0 ± 0.024	-0.001 ± 0.033	-0.017 ± 0.044	-0.008	-0.0175 ± 0.0035	-0.0215 ± 0.0021	-0.0165 ± 0.0078	0.016 ± 0.0071	-0.008 ± 0.0099	0.012 ± 0.016
lMphg:CCL2/MCP-1	0.005 ± 0.0099	-0.0015 ± 0.013	0.0155 ± 0.025	0.0085 ± 0.022	-0.0005 ± 0.021	0.0175 ± 0.015	-0.0105 ± 0.036	0.001 ± 0.0042	0.0095 ± 0.023	0 ± 0.0042	0.0005 ± 0.035	-0.03 ± 0.016	-0.006 ± 0.0085	0.021	0.0055 ± 0.036	0.0095 ± 0.039	0.0125 ± 0.026	0.009 ± 0.057	-0.0115 ± 0.011	-0.0145 ± 0.016
BE3C:CXCL11/I-TAC	-0.011 ± 0.027	0.0105 ± 0.0078	-0.0105 ± 0.04	0.0055 ± 0.018	0.0105 ± 0.0035	0.009 ± 0.023	0.0175 ± 0.011	-0.0405 ± 0.021	-0.849 ± 0.028	0.046 ± 0.031	-0.0085 ± 0.022	-0.0055 ± 0.0078	-0.014 ± 0.016	-0.014	0.0065 ± 0.04	0.015 ± 0.048	0.0155 ± 0.0021	-0.009 ± 0.0057	-0.0155 ± 0.019	0.0055 ± 0.029
LPS:CD106/VCAM-1	0.0075 ± 0.005	-0.0065 ± 0.015	0.003 ± 0.021	0.011 ± 0.024	0.001 ± 0.018	-0.0115 ± 0.005	-0.0055 ± 0.0092	0.0015 ± 0.0035	-0.001 ± 0.0014	0.0235 ± 0.0064	-0.0145 ± 0.005	-0.017 ± 0.014	-0.0365 ± 0.026	-0.091	-0.0035 ± 0.012	-0.0015 ± 0.0064	-0.0105 ± 0.016	0.0005 ± 0.013	0.0065 ± 0.026	-0.005 ± 0.028
BF4T:CD106/VCAM-1	0.0085 ± 0.03	0.011 ± 0.033	0.0265 ± 0.054	-0.0205 ± 0.059	0.0035 ± 0.0092	0.009 ± 0.0014	-0.0065 ± 0.042	-0.026 ± 0.0085	-0.311 ± 0.0042	-0.0055 ± 0.018	0.0205 ± 0.036	0.0325 ± 0.0092	0.018 ± 0.052	0.021	0.004 ± 0.038	-0.0305 ± 0.011	-0.028 ± 0.034	-0.0005 ± 0.053	0.013 ± 0.041	-0.047 ± 0.025
HDF3CGF:CD54/ICAM-1	-0.0195 ± 0.013	-0.0015 ± 0.016	0.0095 ± 0.033	0 ± 0.0057	0.005 ± 0.0099	-0.0125 ± 0.0092	-0.0155 ± 0.021	-0.0485 ± 0.0092	-0.071	-0.009 ± 0.0014	-0.021 ± 0.0042	-0.0235 ± 0.0064	-0.014 ± 0.013	-0.072	-0.0085 ± 0.00071	-0.0145 ± 0.012	-0.022 ± 0.013	-0.0065 ± 0.016	0.0115 ± 0.0078	0.0085 ± 0.0092
CASM3C:CXCL8/IL-8	-0.008	0.005 ± 0.0042	0.0085 ± 0.0021	0.028 ± 0.0071	0.003 ± 0.034	0.023 ± 0.0042	-0.013 ± 0.018	-0.0035 ± 0.0064	-0.006 ± 0.0028	0.0155 ± 0.04	0.026 ± 0.011	0.011 ± 0.017	0.0075 ± 0.0092	0.053	0.0355 ± 0.07	0.0135 ± 0.054	-0.0135 ± 0.021	0.007 ± 0.033	0.0095 ± 0.016	0.017 ± 0.0014
3C:CD106/VCAM-1	-0.0145 ± 0.0078	0.0075 ± 0.0035	-0.0335 ± 0.042	-0.0055 ± 0.021	-0.0095 ± 0.029	-0.0095 ± 0.00071	-0.0015 ± 0.04	-0.0005 ± 0.012	-0.001 ± 0.021	-0.02 ± 0.0028	-0.01 ± 0.0099	-0.017 ± 0.028	-0.037 ± 0.031	-0.088	-0.0215 ± 0.0078	-0.021 ± 0.0028	-0.004 ± 0.033	-0.013 ± 0.0014	0.0015 ± 0.005	-0.0215 ± 0.018
MyoF:alpha-SM Actin	0.0265 ± 0.025	0.0275 ± 0.026	-0.004 ± 0.014	-0.0175 ± 0.0035	0.053 ± 0.045	-0.0145 ± 0.011	0.018 ± 0.024	0.031 ± 0.027	-0.04 ± 0.016	0.0075 ± 0.0092	0.0135 ± 0.026	0.0015 ± 0.054	-0.009 ± 0.042	0.066	0.003 ± 0.031	0.0145 ± 0.013	0.01 ± 0.031	0.004 ± 0.021	0 ± 0.033	0.0035 ± 0.03
BE3C:tPA	0.008 ± 0.085	-0.0165 ± 0.036	-0.0035 ± 0.073	-0.0305 ± 0.029	0.013 ± 0.0071	-0.001 ± 0.0085	0.049 ± 0.03	0.0215 ± 0.026	-0.546 ± 0.0085	0.043 ± 0.054	0.0275 ± 0.035	0 ± 0.0028	-0.006 ± 0.0014	0.019	0 ± 0.018	0.0015 ± 0.0021	-0.031 ± 0.0085	0.02 ± 0.017	0.0145 ± 0.061	0.02 ± 0.035
LPS:CD142/Tissue Factor	-0.0215 ± 0.043	0.008 ± 0.0028	0.0465 ± 0.025	-0.0145 ± 0.011	0.038 ± 0.0014	0.013 ± 0.0014	0 ± 0.0071	0.018 ± 0.0085	-0.011 ± 0.0028	0.006 ± 0.038	-0.0025 ± 0.046	-0.008 ± 0.037	0.0055 ± 0.033	-0.071	-0.0485 ± 0.14	0.0325 ± 0.0035	0.025 ± 0.037	-0.017 ± 0.025	0.0245 ± 0.022	-0.0025 ± 0.016

Random excerpt: two records from the list, in no set order.
Test System	level (log10) [1]	level (log10) [2]	level (log10) (Perfluorooctanoic acid)	level (log10) [3]	level (log10) [4]	level (log10) [5]	level (log10) (Perfluorodecanoic acid; 2200 nM)	level (log10) (Perfluorodecanoic acid; 6700 nM)	level (log10) (Perfluorodecanoic acid; 20000 nM)	level (log10) [6]	level (log10) (Perfluorooctanamidine; 2200 nM)	level (log10) (Perfluorooctanamidine; 6700 nM)	level (log10) (Perfluorooctanamidine; 20000 nM)	level (log10) (Perfluorooctanamidine; 60000 nM)	level (log10) ([7]; 740 nM)	level (log10) ([7]; 2200 nM)	level (log10) [8]	level (log10) [9]	level (log10) [10]	level (log10) (Perfluorononanoic acid)
lMphg:CD40	0.009 ± 0.014	0.028 ± 0.052	-0.004 ± 0.0057	-0.0045 ± 0.0035	-0.004 ± 0.014	-0.0235 ± 0.0021	0.005 ± 0.0014	-0.0025 ± 0.039	-0.0385 ± 0.05	0.0085 ± 0.0035	-0.0125 ± 0.029	-0.016 ± 0.023	-0.0145 ± 0.005	-0.046	0.0265 ± 0.005	0.0155 ± 0.044	0.0215 ± 0.012	0.0135 ± 0.012	-0.014 ± 0.03	-0.002 ± 0.02
BE3C:CXCL11/I-TAC	-0.011 ± 0.027	0.0105 ± 0.0078	-0.0105 ± 0.04	0.0055 ± 0.018	0.0105 ± 0.0035	0.009 ± 0.023	0.0175 ± 0.011	-0.0405 ± 0.021	-0.849 ± 0.028	0.046 ± 0.031	-0.0085 ± 0.022	-0.0055 ± 0.0078	-0.014 ± 0.016	-0.014	0.0065 ± 0.04	0.015 ± 0.048	0.0155 ± 0.0021	-0.009 ± 0.0057	-0.0155 ± 0.019	0.0055 ± 0.029

Source: the supplement of paper PMC10331698
